# PubChem BioAssay AID1347076 (National Center for Advancing Translational Sciences (NCATS), 2019)
# Among all 400,000 compounds or so, about 13,000 (3.2%) were called active. Inconclusive means that the source gave no clear call. Such entries were picked first, then a sample of the others. The call rests on the fitted dose curve; in most records, active means well fitted cell-killing curve with a large enough effect; inconclusive means small, poorly fitted or top-dose-only effect, or effect the other way; inactive means flat fitted curve, though single readings scatter. Where the call is inconclusive, the potency comes from a doubtful curve fit. The source holds several records for some structures; these can differ, active in one and inactive in another.
# Assay: qHTS assay for MDR1-selective chemotherapeutics: Primary screen using the drug-selected MDR subline cells KB-V1; further: nearly all actives have a fitted effect of over 60% in size
# Conditions: KB-V1 MDR cells viability, CellTiter-Glo, 72 h; activity change, negative = cytotoxicity: at 46.1 µM (top of the series)
# How it was run: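 Compound-treated KB-V1 multidrug-resistant cells, 72 h, 37 degrees C; viability by CellTiter-Glo. Fitted qHTS curves give the values.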
# On the % scale 0 is the no-effect control and ±100 the full control effect; potency means the concentration at half of the fitted maximal effect.
SMILES,Potency,"activity change, negative = cytotoxicity"
COc1ccc(CN2[C@@H](CC(=O)O)c3ccccc3S2(=O)=O)cc1,"inconclusive: 29.1 µM [rising, single point]",
CN(C)S(=O)(=O)c1ccc(N2CCCC2)c(C(=O)NCCc2ccc(F)cc2)c1,"inconclusive: 11.6 µM [cytotoxic, partial curve]",
CCCCn1c(-c2ccc(F)c(F)c2)nc2cc3[nH]c(=O)c(C(C)C)nc3cc21,,inactive: 10.6%
COc1cccc(CN2CCN(C(=O)c3cc(-c4cccnc4)nc4ccc(C)cc34)CC2)c1,active: 23.1 µM,
COc1cc(-c2nn3c(COc4ccccc4)nnc3s2)cc(OC)c1OC,active: 5.17 µM,
COC(=O)[C@@H]1C[C@@]2(O)[C@@H](O)[C@@H](O)[C@@H](O)C[C@H]2N1Cc1ccc(Cl)cc1,"inconclusive: 10.3 µM [rising, partial curve, poor fit]",
COc1cc(Cl)c(C)cc1NC(=O)CN(C)C1CCS(=O)(=O)C1 (stereo not drawn),,inconclusive: -14.4%
CC(C)CC(=O)n1nc(-c2ccco2)nc1NCc1ccc(Cl)cc1,,inactive: -2.17%
Cc1cccc(C(=O)Nc2c(C(=O)N(C)C)cnn2-c2ccccc2)c1,"inconclusive: 13 µM [cytotoxic, partial curve]",
Cc1ccc(COC(=O)c2[nH]c3c(c2C)C(=O)CC(c2ccc(Cl)cc2)C3)cc1 (stereo not drawn),"inconclusive: 32.6 µM [rising, partial curve, poor fit]",
O=C(CNC(=O)c1ccccc1O)N/N=C/c1cc(Br)ccc1OC(=O)/C=C/c1ccco1,"inconclusive: 2.06 µM [cytotoxic, partial curve, poor fit]",
CCn1ncc(Br)c1C(=O)Nc1ccccc1C(=O)OC,"inconclusive: 13 µM [cytotoxic, partial curve, poor fit]",
CC(=O)c1c(N2CCCCC2)nc(=S)n(Cc2ccccc2)c1C,,inactive: -7.32%
Cc1nc2ccc(-c3nc4ccc(N)cc4[nH]3)cc2[nH]1,,inactive: 1.87%
COc1ccccc1NS(=O)(=O)c1ccc(C(=O)NCC2(N(C)C)CCCCC2)cc1,"inconclusive: 23.1 µM [cytotoxic, single point]",
CC(=O)Nc1c(Cl)c2c(c(Cl)c1Br)-c1ccc(Cl)cc1C2,"inconclusive: 16.4 µM [cytotoxic, single point]",
COc1ccc2nc(-n3c(O)c(C4=c5ccccc5=NC4=O)[nH]c3=S)sc2c1,,inactive: -19.1%
Cc1cc(C)c(NC(=O)CNC(=O)COC(=O)CNC(=O)c2ccc(Cl)cc2Cl)c(C)c1,"inconclusive: 29.1 µM [rising, single point]",
NC(=O)CC(NC(=O)c1ccc(Br)cc1)c1ccc(N2CCN(c3ccc(F)cc3)CC2)c([N+](=O)[O-])c1 (stereo not drawn),,inactive: 3.24%
COc1cc(C)ccc1OCc1cc(C(=O)N2CCN(C)C[C@@H]2c2ccccc2)no1,,inactive: -25.3%
CCc1ccc(CNC(=O)C2COc3ccccc3C2)cc1 (stereo not drawn),,inactive: -5.18%
C=CCOC(=O)C1=C[C@H](c2coc3ccccc3c2=O)C[C@H](OCc2ccc(CO)cc2)O1,,inactive: -2.7%
CCCCNc1cc(Cl)nc(N)n1,"inconclusive: 23.1 µM [cytotoxic, single point]",

# Arranged by number of heavy atoms (descending): 4 of the compounds above.
SMILES,Potency,"activity change, negative = cytotoxicity"
C=CCOC(=O)C1=C[C@H](c2coc3ccccc3c2=O)C[C@H](OCc2ccc(CO)cc2)O1,,inactive: -2.7%
Cc1cc(C)c(NC(=O)CNC(=O)COC(=O)CNC(=O)c2ccc(Cl)cc2Cl)c(C)c1,"inconclusive: 29.1 µM [rising, single point]",
COc1cc(C)ccc1OCc1cc(C(=O)N2CCN(C)C[C@@H]2c2ccccc2)no1,,inactive: -25.3%
COc1cc(Cl)c(C)cc1NC(=O)CN(C)C1CCS(=O)(=O)C1 (stereo not drawn),,inconclusive: -14.4%

# (cont.)

SMILES,Potency,"activity change, negative = cytotoxicity"
Cc1cccc(CN2C(=O)c3ccccc3S(=O)(=O)c3ccc(C(=O)OCC4CCCO4)cc32)c1 (stereo not drawn),"inconclusive: 14.6 µM [rising, single point]",
C=C1C=C(C(F)F)n2ncc(C(=O)NCc3ccc(Cl)cc3Cl)c2N1,,inactive: -6.93%
O=C(c1ccccc1)c1ccc(Cn2cc(-c3ccccc3)nn2)cc1,active: 0.651 µM,
O=C(CNS(=O)(=O)c1cccc(F)c1)OCC(=O)N1CCCC1=O,"inconclusive: 20.6 µM [rising, single point]",
N#Cc1cc2ccccc2nc1SCC(=O)Nc1ccc(S(=O)(=O)N2CCCC2)cc1,active: 4.11 µM,
Cc1ccc(/C=C/C(=O)Nc2nccs2)o1,"inconclusive: 16.4 µM [cytotoxic, single point]",
O=C(Nc1ccc2c(c1)OCCO2)c1cc2sccc2n1Cc1ccccc1,"inconclusive: 16.4 µM [cytotoxic, single point]",
COc1ccc(CN2C(=O)CCC2(C)c2nnnn2Cc2ccccc2)cc1 (stereo not drawn),"inconclusive: 9.2 µM [cytotoxic, partial curve]",
COc1ccc(NC(=O)CSCc2cc(=O)c3cc(Cl)ccc3[nH]2)cc1,,inactive: 11%
CCN(CC)C(=O)COc1ccc(Br)cc1Cl,"inconclusive: 29.1 µM [cytotoxic, single point]",
CCC(C)C(NC(=O)C1CCC(C)CC1)C(=O)Nc1ccc(OC)cc1OC (stereo not drawn),,inactive: -3.01%
Cc1cn(Cc2ccccc2)c(=O)[nH]c1=O,,inactive: 11.3%
CCOC(=O)Cc1csc(NC(=O)C(NC(=O)C2CCC(C)CC2)C(C)C)n1 (stereo not drawn),"inconclusive: 23.1 µM [cytotoxic, partial curve]",
Cc1cc(C)n(-c2nc3ccccc3nc2N2CCN(C(=O)c3ccc(F)cc3)CC2)n1,"inconclusive: 8.2 µM [cytotoxic, partial curve, poor fit]",
C[C@H](NC(=O)c1[nH]cnc1C(=O)Nc1ccccc1F)c1ccccc1,active: 18.4 µM,
O=C(CSc1nnc(-c2cccs2)o1)c1cccs1,,inactive: 0.205%
CCN1C(=O)/C(=C2/C=Cc3cc(C)ccc3N2CC)N(C)C1=S,"inconclusive: 20.6 µM [cytotoxic, single point]",
CN1CCN(S(=O)(=O)c2ccc(NC(=O)C(C)(C)C)cc2)CC1,"inconclusive: 0.0731 µM [rising, full curve]",
O=C(CSc1nnc(-c2ccc(F)cc2)n1-c1ccccc1)NCCN1C(=O)CSC1=O,"inconclusive: 32.6 µM [rising, single point]",
CCOc1ccccc1NC(=O)CSc1nnc(-c2ccco2)n1Cc1ccco1,"inconclusive: 8.2 µM [cytotoxic, partial curve]",
COc1cccc(-c2nc(CS(=O)(=O)CC(=O)NCCc3cc(OC)ccc3OC)c(C)o2)c1,"inconclusive: 4.61 µM [cytotoxic, partial curve, poor fit]",
CCNC(=S)NNc1nc(N2CCCCC2)nc(N2CCOCC2)n1,"inconclusive: 29.1 µM [rising, single point]",
N#CCCN1CCN(C2=NC(=O)/C(=C\c3cccs3)S2)CC1,"inconclusive: 23.1 µM [cytotoxic, partial curve]",

SMILES,Potency,"activity change, negative = cytotoxicity"
CC(=O)Nc1sc2c(c1-c1nc3ccccc3s1)CCN(C(C)C)C2,"inconclusive: 3.66 µM [cytotoxic, partial curve, poor fit]",
COc1ccc(CCNC(=O)Cc2ccc(NC(=O)N3CCSc4ncccc43)cc2)cc1OC,"inconclusive: 3.66 µM [rising, full curve, poor fit]",
CCOc1ccc(CCNc2nc3ccccc3n3cnnc23)cc1OCC,"inconclusive: 16.4 µM [cytotoxic, partial curve]",
COc1ccc(S(=O)(=O)N2CCCCCC2)cc1C(=O)Nc1ccc(C(=O)N(C)C)cc1,"inconclusive: 8.2 µM [cytotoxic, partial curve]",
CC(OC(=O)C1=NN(c2ccccc2)C(=O)CC1)C(=O)NC1CCCCC1C (stereo not drawn),"inconclusive: 29.1 µM [rising, partial curve, poor fit]",
CC(=O)c1ccc(N(C(=O)c2ccco2)C(C(=O)NC2CCCC2)c2cccs2)cc1 (stereo not drawn),"inconclusive: 16.4 µM [cytotoxic, single point]",
O=[N+]([O-])c1cc(/C=N/N/C(=N/c2ccccn2)c2ccccn2)ccc1O,"inconclusive: 3.66 µM [cytotoxic, partial curve, poor fit]",
COc1ccccc1OCc1nc2ccccc2s1,,inactive: -20%
CN(Cc1ccc(-n2cccn2)cc1)C(=O)c1cnn2c1NC(c1ccco1)CC2C(F)(F)F (stereo not drawn),active: 4.61 µM,
C[C@H]1CN([C@@H](C)CO)C(=O)CCCn2cc(nn2)CO[C@@H]1CN(C)C(=O)NC1CCCCC1,,inactive: 8%
O=c1c2c(nc3cc(-c4ccc(F)cc4)[nH]n13)CCC2,"inconclusive: 20.6 µM [cytotoxic, partial curve, poor fit]",
COC(=O)c1ccc(CN2CCCC(CNC(=O)Cc3ccc(OC)cc3)C2)cc1 (stereo not drawn),"inconclusive: 23.1 µM [cytotoxic, single point]",
COC(=O)CCNC(=O)N1CCN(c2nnc(C)c3c(C)n(-c4ccccc4)nc23)CC1,,inactive: -1.99%
Nc1nc(CSc2n[nH]c(-c3ccccc3)n2)nc(Nc2ccccc2)n1,"inconclusive: 20.6 µM [cytotoxic, single point]",
Cc1cc(=O)[nH]c(SCC(=O)Nc2ccc(Br)cc2)n1,,inactive: 11.3%
COc1cc(C(=O)Nc2cccc(-c3nc4ccccc4o3)c2C)cc(OC)c1OC,"inconclusive: 1.46 µM [cytotoxic, full curve, poor fit]",
COc1ccc(-c2nc(-c3cccs3)c(-c3cccs3)[nH]2)cc1O,"inconclusive: 23.1 µM [cytotoxic, single point]",
COc1ccc(CN2C(=O)N(c3ccc(OC)cc3)C(=O)C2CC(=O)Nc2ccccc2)cc1 (stereo not drawn),"inconclusive: 4.61 µM [rising, partial curve]",
C=Cc1cc2c(cc1O)CCC1C2CCC2(C)C(O)CCC12 (stereo not drawn),"inconclusive: 3.66 µM [cytotoxic, partial curve, poor fit]",
COc1ccc(/C(O)=C2/C(=O)C(=O)N(CCCN3CCOCC3)C2c2ccc(C(C)C)cc2)cc1 (stereo not drawn),"inconclusive: 4.61 µM [rising, full curve, poor fit]",
Cc1ccccc1S(=O)(=O)NC(=O)C1(C)CCN1C(=O)CC1CCCCC1 (stereo not drawn),,inactive: 0.903%
Nn1c(COc2cccc(Cl)c2)nc2ccccc2c1=O,,inactive: -7.16%
